Some of these results come from one statement about several compounds together.
Biological target: T1, P23H opsin (Bos taurus, UniProt P02699, P23H)
T1 construct: expressed in transfected cells
Experiment: Yield of folded P23H rhodopsin purified from P23H opsin expressing HEK293 cells, by spectrophotometry
Format: cell-based, bovine
Conditions: compound concentration 100 μM, compared to control
Protocol: Wild-type (WT) and P23H expressing stable cell lines were generated in a commercially available cloning system, the Flp-In T-Rex System™ (Invitrogen). The stable cells were grown in DMEM high glucose media supplemented with 10% (vlv) fetal bovine serum, antibiotic antimycotic solution, […] blasticidin and hygromycin at 37° C. in presence of 5% CO2. For all the experiments the cells were allowed to reach confluence and were induced with 1 μg/ml tetracycline after change of media and then compounds were added. The plates were incubated for 48 h after which the cells were harvested.
For purification of rhodopsin 100 μM […] was added to a confluent plate of P23H cells after induction. […] Rhodopsin purification was essentially as described below for opsin purification with minor modifications. Briefly, the cells were harvested and washed with PBS followed by incubation with 50 μM 11-cis-retinal for 1.5 h at 4° C. The cells were then washed three times with PBS to remove excess retinal. Lysis, column binding and elution from the column were same as in case of opsin purification.
Stable cell lines expressing the P23H opsin were generated using Flp-In T-Rex system (Invitrogen) in HEK293 cell line. To create plasmids for constructing stable cell lines, an EcoRI-NotI fragment from the wild-type or P23H mutant synthetoc bovine opsin gene in pMT4 (see Kaushal et al., Biochemistry, Vol. 33, pp. 6121-6128 (1994) was combined with the large EcoRI-NotI fragment of pcDNA5/FRT/TO (Invitrogen). The resulting plasmids contain opsin under the control of a tetracycline-inducible human cytomegalovirus promoter and a flippase recognition sequence (FRT) for site sepecific recombination at the unique chromosomal FRT site of HEK293 Flp-In T-Rex. The opsin sequence in these plasmids was verified by PCR cycle sequencing. To construct stable cell lines, HEK293 Flp-In T-Rex cells were co-transfected with the flippase vector pOG44 (from Invitrogen) and the pcDNA5/FRT/TO vector or its derivatives containing the opsin gene. Stable recombinants were obtained by selecting for cells expressing resistance to hygromycin due to plasmid recombination at the FRT site. After the initial selection, the stable cell lines were routinely grown in the same media as HEK293 Flp-In T-rex, except that […].
The stable cells were grown in DMEM high glucose media supplemented with 10% (v/v) fetal bovine serum, antibiotic/antimycotic solution, 5 μg/ml blasticidin and hygromycin at 37° C. in presence of 5% CO2. For all the experiments the cells were allowed to reach confluence and were induced with 1 μg/mi tetracycline after change of media and then compounds were added. The plates were incubated for 48 h after which the cells were harvested.
The effect of the compounds on P23H rhodopsin yield was assessed by purifying and spectrophotormetrically determining the yield. After 48 hours of induction and treatment with compounds the cells were harvested and rhodopsin purified essentially as described in Noorwez et al. (2004). For purification of rhodopsin 100 μM NCI-45012 was added to a confluent plate of P23H cells after induction. […] Rhodopsin purification was essentially as described earlier for opsin purification with minor modifications. Briefly, the cells were harvested and washed with PBS followed by incubation with 50 μM 11-cis-retinal for 1.5 hours at 4° C., The cells were then washed three times with PBS to remove excess retinal. Lysis, column binding and elution from the column were the same as for opsin purification.
Compounds identified by computational modeling (see Example 1) were screened as described above. The effect of compounds on the yield of mutant rhodopsin was determined by spectrophotometry. […]

**Q.** With `CC(=O)c1c(C)n[nH]c1C` [Compound 1, 1-(3,5-dimethyl-1H-pyrazol-4-yl)ethanone] as the molecule, how does the “% Increase in P23H Yield (Table 1)” value (listed as compound 1) read?
**A.** ≥ 15%

**Q.** How did the “% Increase in P23H Yield (Table 1)” value (listed as compound 2) turn out when `N#Cc1cn(Cc2ccco2)c(=O)[nH]c1=O` [Compound 2, 1-furan-2-ylmethyl-2,4-dioxo-1,2,3,4-tetrahydro-pyrimidine-5-carbonitrile] was run?
**A.** ≥ 15%

**Q.** Which “% Increase in P23H Yield (Table 1)” value (listed as compound 3) does the source give for `O=[PH](O)c1ccccc1` [Compound 3, phenyl-phosphinic acid] here?
**A.** ≥ 15%

**Q.** With `Cc1cc([N+](=O)[O-])ccn1` [Compound 4, 2-methyl-4-nitro-pyridine] as the molecule, how does the “% Increase in P23H Yield (Table 1)” value (listed as compound 4) read?
**A.** ≥ 15%

**Q.** `O=C1NC(CCO)C(=O)NC1CCO` (stereo not drawn) [Compound 5, 3,6-bis-(2-hydroxyethy)-piperazine-2,5-dione] was tested. Which “% Increase in P23H Yield (Table 1)” value (listed as compound 5) did it give?
**A.** ≥ 15%

**Q.** With `CC(C)N(CC#N)C(C)C` [Compound 6, diisopropylaminoacetonitrile] as the molecule, how does the “% Increase in P23H Yield (Table 1)” value (listed as compound 6) read?
**A.** ≥ 15%

From patent publication US20090286808A1, “Opsin Stabilizing Compounds and Methods of Use” (University of Florida Research Foundation, Inc., priority 2006, published 2009)
